Measurements published in PMC7141810, “UBP12 and UBP13 negatively regulate the activity of the ubiquitin-dependent peptidases DA1, DAR1 and DAR2” (eLife, 2020).
Results are given in words; binding and its absence hold for the method and conditions named. Sequences can lack the tags named with a protein.

B1: HIS-MBP-DA1 (natural protein, Arabidopsis thaliana, UniProt P0C7Q8 1-532, looked up)
chain: MGWFNKIFKGSNQRLRVGNNKHNHNVYYDNYPTASHDDEPSAADTDADNDEPHHTQEPSTSEDNTSNDQENEDIDRAIALSLLEENQEQTSISGKYSMPVDEDEQLARALQESMVVGNSPRHKSGSTYDNGNAYGAGDLYGNGHMYGGGNVYANGDIYYPRPITFQMDFRICAGCNMEIGHGRFLNCLNSLWHPECFRCYGCSQPISEYEFSTSGNYPFHKACYRERYHPKCDVCSHFIPTNHAGLIEYRAHPFWVQKYCPSHEHDATPRCCSCERMEPRNTRYVELNDGRKLCLECLDSAVMDTMQCQPLYLQIQNFYEGLNMKVEQEVPLLLVERQALNEAREGEKNGHYHMPETRGLCLSEEQTVSTVRKRSKHGTGKWAGNITEPYKLTRQCEVTAILILFGLPRLLTGSILAHEMMHAWMRLKGFRTLSQDVEEGICQVMAHKWLDAELAAGSTNSNAASSSSSSQGLKKGPRSQYERKLGEFFKHQIESDASPVYGDGFRAGRLAVHKYGLRKTLEHIQMTGRFPV
notes: DA1, Arabidopsis thaliana, AT1G19270; source: E. coli BL21 (DE3), purified (NI-NTA agarose beads)
B2: HIS-MBP-DAR2 (natural protein, Arabidopsis thaliana, UniProt Q0WSN2 1-528, looked up)
chain: MDSSSSSSSSSPSSSYGVARVSHISNPCIFGEVGSSSSSTYRDKKWKLMKWVSKLFKSGSNGGGSGAHTNHHPPQFQEDENMVFPLPPSSLDDRSRGARDKEELDRSISLSLADNTKRPHGYGWSMDNNRDFPRPFHGGLNPSSFIPPYEPSYQYRRRQRICGGCNSDIGSGNYLGCMGTFFHPECFRCHSCGYAITEHEFSLSGTKPYHKLCFKELTHPKCEVCHHFIPTNDAGLIEYRCHPFWNQKYCPSHEYDKTARCCSCERLESWDVRYYTLEDGRSLCLECMETAITDTGECQPLYHAIRDYYEGMYMKLDQQIPMLLVQREALNDAIVGEKNGYHHMPETRGLCLSEEQTVTSVLRRPRLGAHRLVGMRTQPQRLTRKCEVTAILVLYGLPRLLTGAILAHELMHGWLRLNGFRNLNPEVEEGICQVLSYMWLESEVLSDPSTRNLPSTSSVATSSSSSFSNKKGGKSNVEKKLGEFFKHQIAHDASPAYGGGFRAANAAACKYGLRRTLDHIRLTGTFPL
notes: DAR2, Arabidopsis thaliana, AT2G39830; source: E. coli BL21 (DE3), purified (NI-NTA agarose beads)
B3: HIS-MBP-DAR1 (natural protein, Arabidopsis thaliana, UniProt Q8W4F0 1-553, looked up)
chain: MGWLTKILKGSSHKFSDGQCNGRYREDRNLEGPRYSAEGSDFDKEEIECAIALSLSEQEHVIPQDDKGKKIIEYKSETEEDDDDDEDEDEEYMRAQLEAAEEEERRVAQAQIEEEEKRRAEAQLEETEKLLAKARLEEEEMRRSKAQLEEDELLAKALQESMNVGSPPRYDPGNILQPYPFLIPSSHRICVGCQAEIGHGRFLSCMGGVWHPECFCCNACDKPIIDYEFSMSGNRPYHKLCYKEQHHPKCDVCHNFIPTNPAGLIEYRAHPFWMQKYCPSHERDGTPRCCSCERMEPKDTKYLILDDGRKLCLECLDSAIMDTHECQPLYLEIREFYEGLHMKVEQQIPMLLVERSALNEAMEGEKHGHHHLPETRGLCLSEEQTVTTVLRRPRIGAGYKLIDMITEPCRLIRRCEVTAILILYGLPRLLTGSILAHEMMHAWLRLNGYPNLRPEVEEGICQVLAHMWLESETYAGSTLVDIASSSSSAVVSASSKKGERSDFEKKLGEFFKHQIESDSSSAYGDGFRQGNQAVLKHGLRRTLDHIRLTGTFP
notes: DAR1, Arabidopsis thaliana, AT4G36860; source: E. coli BL21 (DE3), purified (NI-NTA agarose beads)

The binders below were run against free GST (assay: pull-down; in vitro; equal amounts of free GST, GST-UBP12 or GST-UBP13 as baits incubated with HIS-MBP-DA1, -DAR1 or -DAR2; purification with anti-GST beads; Western blot; both purified).

binding, no binding:
B1
B2
B3
